Results are given in words; binding and its absence hold for the method and conditions named. Binding seen in cells or lysates may run through a third protein. For part of these data: A result given as binding can be weak or reduced; the word gives no strength. For part of these data: Where a sequence is shown, tags or fusion partners need not be part of it.
Experiments:
[1] = target: human L1 ORF1p Y282A (human) (UniProt Q9UN81); test: co-IP; Tet-293 cell lysates, 48 h after doxycycline induction of L1 and ALIX-2HA transfection; IP of L1 ORF1p with JH74, western blot with anti-ALIX or anti-HA 12CA5; 25 mM HEPES pH 7.4, 200 mM NaCl, with DNase I and RNase A
[2] = target: T1, HA-tagged Vps23p (S. cerevisiae) (UniProt P25604); test: co-IP; yeast lysates (JHY148) after galactose induction; IP with anti-HA affinity matrix, western blot for Zorro3 ORF1p (G01); 25 mM Tris-Cl pH 7.4, 150 mM NaCl, 0.5% Triton X-100, 0.5% Na-deoxycholate
T1 sequence: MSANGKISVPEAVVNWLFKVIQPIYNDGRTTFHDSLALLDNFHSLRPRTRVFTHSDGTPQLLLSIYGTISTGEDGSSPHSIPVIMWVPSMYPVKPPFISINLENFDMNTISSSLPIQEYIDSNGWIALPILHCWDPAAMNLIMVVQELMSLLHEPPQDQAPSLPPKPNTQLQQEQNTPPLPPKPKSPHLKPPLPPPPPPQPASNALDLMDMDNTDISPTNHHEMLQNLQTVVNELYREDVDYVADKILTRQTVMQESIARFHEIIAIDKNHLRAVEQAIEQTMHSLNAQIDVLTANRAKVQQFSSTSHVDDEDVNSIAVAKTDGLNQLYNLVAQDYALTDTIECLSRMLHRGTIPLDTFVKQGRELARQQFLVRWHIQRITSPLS

The chains behind the UniProt entries cited, without tags or fusion partners. Where a name states a change or a piece, a line headed by the entry shows the natural chain unless it says otherwise.
UniProt Q9UN81: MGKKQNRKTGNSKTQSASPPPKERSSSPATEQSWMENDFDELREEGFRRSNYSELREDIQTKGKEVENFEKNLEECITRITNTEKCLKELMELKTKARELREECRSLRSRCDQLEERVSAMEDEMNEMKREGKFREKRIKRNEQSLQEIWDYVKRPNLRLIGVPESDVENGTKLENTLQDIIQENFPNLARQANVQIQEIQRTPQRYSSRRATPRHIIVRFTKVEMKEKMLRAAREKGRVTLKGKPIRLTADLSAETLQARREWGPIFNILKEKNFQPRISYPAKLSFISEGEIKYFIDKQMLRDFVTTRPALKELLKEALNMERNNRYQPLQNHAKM
UniProt Q8WUM4: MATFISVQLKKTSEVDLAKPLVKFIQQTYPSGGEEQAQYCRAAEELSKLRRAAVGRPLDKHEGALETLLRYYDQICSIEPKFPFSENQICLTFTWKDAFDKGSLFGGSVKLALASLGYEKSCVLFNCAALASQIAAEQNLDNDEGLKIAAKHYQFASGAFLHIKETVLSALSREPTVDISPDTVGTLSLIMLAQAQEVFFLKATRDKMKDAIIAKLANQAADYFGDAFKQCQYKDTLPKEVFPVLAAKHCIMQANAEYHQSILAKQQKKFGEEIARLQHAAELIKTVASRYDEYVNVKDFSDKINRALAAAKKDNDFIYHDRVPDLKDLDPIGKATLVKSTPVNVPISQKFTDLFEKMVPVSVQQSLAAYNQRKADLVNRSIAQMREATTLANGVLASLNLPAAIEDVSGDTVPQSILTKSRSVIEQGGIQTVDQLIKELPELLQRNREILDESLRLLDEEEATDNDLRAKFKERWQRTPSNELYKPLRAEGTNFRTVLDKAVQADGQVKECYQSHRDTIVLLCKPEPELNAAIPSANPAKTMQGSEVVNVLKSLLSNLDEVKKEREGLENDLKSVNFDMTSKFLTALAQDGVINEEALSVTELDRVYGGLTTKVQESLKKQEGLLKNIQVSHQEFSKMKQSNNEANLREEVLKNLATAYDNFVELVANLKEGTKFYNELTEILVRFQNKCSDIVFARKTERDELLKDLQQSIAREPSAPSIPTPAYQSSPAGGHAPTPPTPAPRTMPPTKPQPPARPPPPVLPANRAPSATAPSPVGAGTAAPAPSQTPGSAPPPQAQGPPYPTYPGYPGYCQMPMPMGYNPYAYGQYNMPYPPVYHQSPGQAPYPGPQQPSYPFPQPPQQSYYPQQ

[3] = target: T2, HA-tagged Bro1p (S. cerevisiae) (UniProt P48582); test: as above
T2 sequence: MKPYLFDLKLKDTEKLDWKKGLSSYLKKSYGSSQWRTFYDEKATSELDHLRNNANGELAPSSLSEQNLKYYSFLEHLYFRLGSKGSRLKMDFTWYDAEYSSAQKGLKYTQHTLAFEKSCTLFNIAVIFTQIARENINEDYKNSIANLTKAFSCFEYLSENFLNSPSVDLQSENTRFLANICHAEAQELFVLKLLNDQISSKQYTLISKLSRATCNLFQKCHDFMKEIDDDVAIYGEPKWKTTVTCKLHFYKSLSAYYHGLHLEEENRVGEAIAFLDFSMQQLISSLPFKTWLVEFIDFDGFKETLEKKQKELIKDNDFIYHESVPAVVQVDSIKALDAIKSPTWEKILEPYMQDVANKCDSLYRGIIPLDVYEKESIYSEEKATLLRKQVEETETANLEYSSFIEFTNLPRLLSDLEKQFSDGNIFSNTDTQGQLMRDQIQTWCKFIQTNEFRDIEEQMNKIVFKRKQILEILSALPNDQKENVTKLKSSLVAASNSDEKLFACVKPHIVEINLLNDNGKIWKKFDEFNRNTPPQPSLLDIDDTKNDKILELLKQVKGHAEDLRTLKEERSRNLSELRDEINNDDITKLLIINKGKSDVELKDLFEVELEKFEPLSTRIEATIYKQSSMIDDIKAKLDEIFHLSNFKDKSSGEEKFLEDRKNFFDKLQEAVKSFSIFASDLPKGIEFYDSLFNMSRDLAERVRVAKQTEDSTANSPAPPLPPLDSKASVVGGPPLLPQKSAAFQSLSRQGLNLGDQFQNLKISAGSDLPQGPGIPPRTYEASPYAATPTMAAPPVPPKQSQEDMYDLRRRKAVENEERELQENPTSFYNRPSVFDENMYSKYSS

[4] = target: T3, HA-tagged Snf8p (S. cerevisiae) (UniProt Q12483); test: as above
T3 sequence: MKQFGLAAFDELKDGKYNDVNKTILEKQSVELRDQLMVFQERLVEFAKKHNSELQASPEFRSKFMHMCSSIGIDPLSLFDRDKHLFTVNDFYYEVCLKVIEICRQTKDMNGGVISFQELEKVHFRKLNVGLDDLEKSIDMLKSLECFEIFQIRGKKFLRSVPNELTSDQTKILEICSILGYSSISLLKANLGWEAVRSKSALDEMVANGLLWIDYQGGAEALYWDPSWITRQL

[5] = target: T4, HA-tagged Snf7p (S. cerevisiae) (UniProt P39929); test: as above
T4 sequence: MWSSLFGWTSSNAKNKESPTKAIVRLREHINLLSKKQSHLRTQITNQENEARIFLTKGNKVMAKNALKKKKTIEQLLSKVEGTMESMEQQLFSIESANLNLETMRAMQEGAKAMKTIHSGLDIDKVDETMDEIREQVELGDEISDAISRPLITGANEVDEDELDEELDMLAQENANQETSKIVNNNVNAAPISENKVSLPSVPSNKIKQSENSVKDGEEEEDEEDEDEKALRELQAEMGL

[6] = target: T5, HA-tagged Vps4p (S. cerevisiae) (UniProt P52917); test: as above
T5 sequence: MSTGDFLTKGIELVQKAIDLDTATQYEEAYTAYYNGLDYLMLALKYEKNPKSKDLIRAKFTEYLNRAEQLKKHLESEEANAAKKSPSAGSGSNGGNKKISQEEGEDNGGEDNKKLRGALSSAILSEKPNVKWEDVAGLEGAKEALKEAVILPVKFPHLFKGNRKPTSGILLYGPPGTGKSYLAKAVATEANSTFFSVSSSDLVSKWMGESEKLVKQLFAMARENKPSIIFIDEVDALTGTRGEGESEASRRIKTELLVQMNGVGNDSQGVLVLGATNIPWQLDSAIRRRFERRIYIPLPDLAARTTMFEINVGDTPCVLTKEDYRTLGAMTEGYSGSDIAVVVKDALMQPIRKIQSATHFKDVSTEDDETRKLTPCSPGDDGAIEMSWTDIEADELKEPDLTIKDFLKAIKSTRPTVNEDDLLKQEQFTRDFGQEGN

[7] = target: Zorro3 ORF1p (Candida albicans); test: co-IP; yeast lysates (JHY148; control strain JHY146 without Zorro3) after galactose induction; IP with anti-Zorro3 ORF1p antibody G01, western blot for HA; 25 mM Tris-Cl pH 7.4, 150 mM NaCl, 0.5% Triton X-100, 0.5% Na-deoxycholate; with or without 0.5 ug/mL RNase A

Molecule: ALIX-2HA (from UniProt Q8WUM4 1-868)
- binding [1]: no binding

Molecule: Zorro3 ORF1p (Candida albicans)
- binding [2]: binds
- binding [3]: no binding
- binding [4]: binds
- binding [5]: binds
- binding [6]: binds

B1: HA-tagged Snf7p (protein, UniProt P39929 1-240)
chain: T4 sequence
- binding [7]: binds

B2: HA-tagged Vps23p (protein, UniProt P25604 1-385)
chain: T1 sequence
- binding [7]: binds

B3: HA-tagged Snf8p (protein, UniProt Q12483 1-233)
chain: T3 sequence
- binding [7]: binds
